# Measured values taken from article doi:10.1101/2020.06.08.118984 (bioRxiv, 2020).
# Chains of the proteins cited; added tags and fusions are not shown.
# UniProt Q99PM3: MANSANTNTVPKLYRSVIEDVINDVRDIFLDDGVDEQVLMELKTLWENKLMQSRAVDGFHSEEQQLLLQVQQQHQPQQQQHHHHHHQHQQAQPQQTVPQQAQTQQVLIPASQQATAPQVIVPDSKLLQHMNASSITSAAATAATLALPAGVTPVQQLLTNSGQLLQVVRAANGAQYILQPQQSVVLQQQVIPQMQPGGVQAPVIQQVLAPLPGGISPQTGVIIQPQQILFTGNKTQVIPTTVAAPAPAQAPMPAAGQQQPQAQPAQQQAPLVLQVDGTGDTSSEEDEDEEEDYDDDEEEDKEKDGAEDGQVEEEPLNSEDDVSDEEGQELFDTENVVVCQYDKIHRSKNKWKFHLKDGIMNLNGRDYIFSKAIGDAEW
# UniProt Q80ZM7: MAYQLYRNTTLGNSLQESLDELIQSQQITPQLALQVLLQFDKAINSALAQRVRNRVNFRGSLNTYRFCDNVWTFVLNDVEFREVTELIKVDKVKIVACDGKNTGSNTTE
# Molecular target: T1, TBPL2 (TATA binding protein paralogue) (mouse (endogenous in P14 ovary)) (UniProt Q6SJ95)
# T1 sequence: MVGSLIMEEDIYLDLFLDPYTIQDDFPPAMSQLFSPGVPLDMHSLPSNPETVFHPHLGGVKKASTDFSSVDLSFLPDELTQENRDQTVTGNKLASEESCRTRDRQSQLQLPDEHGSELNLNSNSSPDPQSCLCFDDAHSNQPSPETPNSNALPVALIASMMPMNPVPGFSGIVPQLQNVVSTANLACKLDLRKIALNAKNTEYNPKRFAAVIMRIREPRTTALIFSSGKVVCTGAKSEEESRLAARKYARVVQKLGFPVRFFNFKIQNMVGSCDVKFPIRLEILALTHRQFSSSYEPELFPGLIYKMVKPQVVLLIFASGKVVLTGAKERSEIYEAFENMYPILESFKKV
# Assay: affinity purification with mass spectrometry
row,Substance,binding
1,TFIIA-αβ (from UniProt Q99PM3 1-378),binds
2,TFIIA-γ (from UniProt Q80ZM7 1-109),binds

# Results are given in words; binding and its absence hold for the method and conditions named. Binding seen in cells or lysates may run through a third protein. These calls come from enrichment with a bait or labelling near it, and not all partners need be listed.
